1 substance from paper doi:10.1101/2020.10.29.360719 can be followed below.

Chains of the proteins cited; added tags and fusions are not shown. Residues count along the entry.
ORF1_(1-53) (disordered N-terminal region of ORF1) (Q9UN81, residues 1-53): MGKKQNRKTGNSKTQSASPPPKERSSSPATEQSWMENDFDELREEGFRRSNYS
ORF1_(53-131) (Q9UN81, residues 53-131): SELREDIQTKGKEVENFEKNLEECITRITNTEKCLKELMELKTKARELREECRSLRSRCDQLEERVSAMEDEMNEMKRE

The experiment deals with ORF1_(1-53) (disordered N-terminal region of ORF1) (human) (UniProt Q9UN81). Nature of the experiment: NMR titration.

No constants are given. Whether binding was seen depends on the method and setting.

Take “ORF1_(53-131) (from UniProt Q9UN81 53-131) (domain or fragment)”: the binding result is reported as “no binding”.
